The results in this text go back to the supplement of paper PMC3334620.

The full ranking holds about 33,000 sequences; the median of “E-score (-0.5 to 0.5)” is about -0.015, and the highest 2% start at about 0.3. Some of the results follow.

In the test the target is T1, Abf1 (UniProt P14164).
T1 sequence: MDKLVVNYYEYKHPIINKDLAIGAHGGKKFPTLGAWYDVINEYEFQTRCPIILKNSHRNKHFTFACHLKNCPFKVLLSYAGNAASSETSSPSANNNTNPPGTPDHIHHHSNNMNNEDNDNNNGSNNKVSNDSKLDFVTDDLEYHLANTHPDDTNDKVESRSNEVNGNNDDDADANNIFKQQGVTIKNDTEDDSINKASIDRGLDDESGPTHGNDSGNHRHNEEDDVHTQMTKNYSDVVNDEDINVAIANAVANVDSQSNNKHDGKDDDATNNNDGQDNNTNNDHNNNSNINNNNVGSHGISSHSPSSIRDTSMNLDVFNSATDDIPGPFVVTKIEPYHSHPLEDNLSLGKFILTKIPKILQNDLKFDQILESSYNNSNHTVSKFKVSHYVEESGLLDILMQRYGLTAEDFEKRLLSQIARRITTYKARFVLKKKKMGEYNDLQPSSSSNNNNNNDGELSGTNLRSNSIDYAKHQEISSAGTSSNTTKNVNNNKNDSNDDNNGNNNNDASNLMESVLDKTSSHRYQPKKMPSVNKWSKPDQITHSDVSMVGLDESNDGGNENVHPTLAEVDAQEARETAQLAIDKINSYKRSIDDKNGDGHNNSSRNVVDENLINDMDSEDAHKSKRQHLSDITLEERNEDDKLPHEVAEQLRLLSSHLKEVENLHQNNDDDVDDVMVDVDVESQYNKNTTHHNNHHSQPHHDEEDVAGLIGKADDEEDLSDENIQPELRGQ
The experiment in a line: PBM E-score (8-mer binding enrichment) (E-score (-0.5 to 0.5)); higher = stronger / more preferred TF binding. To be noted: protein concentration: 200 nM; construct: GST-full length. In short, it runs like this: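 Universal all-10-mer Agilent arrays, double-stranded by primer extension on fresh or once-stripped slides, were probed with about 100-200 nM GST-tagged yeast transcription factors made by PURExpress. Fluorescent anti-GST detected bound protein, and masliner normalised the scans. E-scores from the Universal PBM Analysis Suite were given to each ungapped eight-base word pooled with its reverse complement.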
Take TGTCAACA: the “PBM E-score” value was -0.00868.

AAACTTGG: the “PBM E-score” value is -0.183.

Regarding ATAGCCTC, the “PBM E-score” value was -0.153.

With GGTCCCGA, the “PBM E-score” value was -0.219.

CGCGCTAC: the “PBM E-score” value came out at 0.103.

GCCGGATA: the “PBM E-score” value amounted to 0.0738.

GGGTTTCA: the “PBM E-score” value is -0.0251.

With CGGGTGTC, the “PBM E-score” value was -0.0118.

As to AGCGCCTA, the “PBM E-score” value is -0.0277.

For the sequence CAGCTTTA, the “PBM E-score” value was -0.0823.

Consider AAGACTCC, for which the “PBM E-score” value was -0.0731.

On to ACTAGCCA, for which the “PBM E-score” value was -0.0202.

For the sequence GAAGTACA, the “PBM E-score” value is -0.0069.

As to CACGCTAC, the “PBM E-score” value is 0.113.

On to AAAGGAGC, for which the “PBM E-score” value was -0.183.

On to CCAGCTAC, for which the “PBM E-score” value is -0.0737.

For the sequence CGATCGCC, the “PBM E-score” value came to 0.159.

For the sequence AACGTCCC, the “PBM E-score” value is -0.0713.

With TAAGCCCA, the “PBM E-score” value was -0.0666.

Consider AAGGGTCC, for which the “PBM E-score” value was -0.167.

CTATTACA: the “PBM E-score” value is 0.0236.

On to GTGGACAA, for which the “PBM E-score” value stood at 0.133.

CGAGTGTC: the “PBM E-score” value turned out to be 0.137.

In the case of GAACCTCA, the “PBM E-score” value stood at 0.0925.

In the case of GGGTCGGA, the “PBM E-score” value was -0.151.

As for ACTGGTGG, the “PBM E-score” value is -0.204.

For GAACTCTC, the “PBM E-score” value was -0.211.

As for AATACGGT, the “PBM E-score” value was 0.194.

GGGTGGGA: the “PBM E-score” value is -0.108.

Turning to AGAAGGCG, the “PBM E-score” value was -0.119.

As to CTGGATCC, the “PBM E-score” value was -0.167.

As to GATCCTTA, the “PBM E-score” value is -0.173.

Regarding ATTACTTG, the “PBM E-score” value was -0.0697.

Consider ATGCGCTG, for which the “PBM E-score” value came out at 0.0463.

Turning to CACCAAAC, the “PBM E-score” value is -0.0311.

Turning to ACACGCAT, the “PBM E-score” value was -0.101.

Regarding CTGTGACC, the “PBM E-score” value is -0.186.

Take GCGCCTAC: the “PBM E-score” value is -0.0694.

As for CCGCCGTA, the “PBM E-score” value is 0.0615.

For GAGGAACA, the “PBM E-score” value is -0.095.

For the sequence CCCCCCAA, the “PBM E-score” value is -0.369.

Consider CCCGTGGA, for which the “PBM E-score” value is 0.0795.

Take TAGCAAAA: the “PBM E-score” value was 0.184.

For the sequence GTGACCAC, the “PBM E-score” value was 0.175.

For the sequence CTACCATA, the “PBM E-score” value is -0.0865.

With CCTAGACC, the “PBM E-score” value amounted to 0.0667.

Take AACCAGGA: the “PBM E-score” value is -0.174.

Take CGCCACGC: the “PBM E-score” value is -0.0822.

Consider CTATAGAG, for which the “PBM E-score” value is -0.032.

For CCTTGGTC, the “PBM E-score” value was -0.302.

With AAAAGCTC, the “PBM E-score” value amounted to 0.0831.

For CGTGTAAA, the “PBM E-score” value was determined as 0.314.

Consider AATCTTTA, for which the “PBM E-score” value was -0.0233.

Consider CCCGGTAA, for which the “PBM E-score” value was -0.314.

In the case of ACTACTAA, the “PBM E-score” value is -0.0373.

For the sequence AAATTCGT, the “PBM E-score” value was 0.328.

As to AACTCTAT, the “PBM E-score” value is -0.096.

Consider TCCCTGAA, for which the “PBM E-score” value amounted to 0.0662.

For CTAGTCTA, the “PBM E-score” value is -0.1.

With ACCAGTTG, the “PBM E-score” value was -0.0421.

ACTTGACT: the “PBM E-score” value was -0.163.

As for CGCTCCTA, the “PBM E-score” value came out at 0.0474.

For the sequence CAATATGC, the “PBM E-score” value was -0.0289.

For AGGTTTTA, the “PBM E-score” value was -0.193.

With ATCGCGTC, the “PBM E-score” value was determined as 0.137.

As for AGTGCACG, the “PBM E-score” value was found to be 0.177.

In the case of CGCCGCAA, the “PBM E-score” value was determined as 0.00435.

Turning to CGATTGCC, the “PBM E-score” value is 0.116.

As to AAGTGTAT, the “PBM E-score” value was -0.092.

Regarding CTCGATAC, the “PBM E-score” value is 0.0718.

Take AGCAAAAG: the “PBM E-score” value amounted to 0.0407.

Regarding CCTAGAAA, the “PBM E-score” value is -0.0382.

CGCAGGAA: the “PBM E-score” value was -0.0252.

For the sequence TACTTAAA, the “PBM E-score” value was -0.11.

Take CCTATCAA: the “PBM E-score” value was -0.0176.

CAGCGGCG: the “PBM E-score” value is -0.151.

CAGGATGA: the “PBM E-score” value worked out at 0.197.

Take AACGCTGA: the “PBM E-score” value was determined as 0.0266.

Take TGTAAAAA: the “PBM E-score” value is -0.0577.

Regarding GAACGGCC, the “PBM E-score” value was found to be 0.0506.

For ATCGGAGA, the “PBM E-score” value was -0.233.

ATGCGTTC: the “PBM E-score” value was found to be 0.0986.

On to AACTAGCT, for which the “PBM E-score” value worked out at 0.0558.

AAACAGGG: the “PBM E-score” value is -0.0823.

Take AAGTCCTA: the “PBM E-score” value was -0.0851.

ACCCCGAA: the “PBM E-score” value was -0.128.

Consider AAAGACGC, for which the “PBM E-score” value is -0.101.

As to ACGCTTGC, the “PBM E-score” value is -0.174.

With AATCTGTC, the “PBM E-score” value is -0.00601.

Take GTGAACAA: the “PBM E-score” value is -0.043.

With ACGATACA, the “PBM E-score” value worked out at 0.129.

For ACTACCCC, the “PBM E-score” value is -0.276.

Regarding AGTGCTAG, the “PBM E-score” value is -0.0973.

For TATCTCCA, the “PBM E-score” value came out at 0.0417.
